{"source": "PubChem BioAssay AID652243 (Drosophila RNAi Screening Center, 2013)", "screen": "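Knock-downs that decrease or increase androgen receptor reporter signal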 (primary screen)", "cells": "Drosophila S2R+ cells", "reagents": "long dsRNA against Drosophila genes", "time to read-out": "72 h (48 h, then 24 h hormone)", "conditions": "synthetic androgen R1881 at 10 nM for 24 h", "measured": "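Firefly light from an androgen-responsive reporter and Renilla control light per well, raw and unnormalised, for each of two replicates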", "scale": "firefly reporter light: higher = more light from androgen-responsive reporter; Renilla control light: higher = more constitutive control signal (cell number, transfection)", "active means": "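Across duplicate plates, a knock-down whose log firefly/Renilla ratio shifted a set fold down or up from the GFP/LacZ control mean was a hit; the downward cut appears as both 1.5 and 3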", "calls": "active = hit: reporter lowered or raised; inactive = no hit", "note": "In all, the deposit lists about 24,000 reagents; this is a random part of those with a known target gene and a result. Over the whole deposit, 246 (1%) are marked active. 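Plates not normalised; calls are printed but the firefly/Renilla ratio behind them is not deposited; fold cut for lowering reported inconsistently.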 The raw values are shown without normalisation. Unmarked entries are inactive. The record does not give: the amount of reagent."}
{"target gene": "Caf1-55 (GeneID 41836)", "DRSC id": "DRSC16596", "firefly reporter light, replicate 1": 2.25e5, "firefly reporter light, replicate 2": 2.28e5, "Renilla control light, replicate 1": 7.04e5, "Renilla control light, replicate 2": 7.26e5}
{"target gene": "Mip (GeneID 39933)", "DRSC id": "DRSC23429", "firefly reporter light, replicate 1": 4.63e5, "firefly reporter light, replicate 2": 4.42e5, "Renilla control light, replicate 1": 5.16e5, "Renilla control light, replicate 2": 5.09e5}
{"target gene": "Syx13 (GeneID 39485)", "DRSC id": "DRSC09836", "firefly reporter light, replicate 1": 1.29e5, "firefly reporter light, replicate 2": 1.26e5, "Renilla control light, replicate 1": 1.74e6, "Renilla control light, replicate 2": 1.45e6}
{"target gene": "CG15579 (GeneID 50380)", "DRSC id": "DRSC18067", "firefly reporter light, replicate 1": 4.51e5, "firefly reporter light, replicate 2": 4.36e5, "Renilla control light, replicate 1": 5.42e6, "Renilla control light, replicate 2": 4.33e6}
{"target gene": "Sirt4 (GeneID 31480)", "DRSC id": "DRSC18290", "firefly reporter light, replicate 1": 1.90e5, "firefly reporter light, replicate 2": 2.43e5, "Renilla control light, replicate 1": 1.77e6, "Renilla control light, replicate 2": 2.03e6}
{"target gene": "Sirt4 (GeneID 31480)", "DRSC id": "DRSC27472", "firefly reporter light, replicate 1": 4.15e5, "firefly reporter light, replicate 2": 3.71e5, "Renilla control light, replicate 1": 7.24e5, "Renilla control light, replicate 2": 8.07e5}
{"target gene": "CG6650 (GeneID 39555)", "DRSC id": "DRSC10685", "firefly reporter light, replicate 1": 9.78e5, "firefly reporter light, replicate 2": 7.89e5, "Renilla control light, replicate 1": 1.48e6, "Renilla control light, replicate 2": 9.80e5}
{"target gene": "c(3)G (GeneID 47765)", "DRSC id": "DRSC15245", "firefly reporter light, replicate 1": 85370, "firefly reporter light, replicate 2": 63126, "Renilla control light, replicate 1": 8.01e5, "Renilla control light, replicate 2": 5.92e5}
{"target gene": "c(3)G (GeneID 47765)", "DRSC id": "DRSC26062", "firefly reporter light, replicate 1": 3.42e5, "firefly reporter light, replicate 2": 3.32e5, "Renilla control light, replicate 1": 3.80e5, "Renilla control light, replicate 2": 6.72e5}
{"target gene": "CG41367 (retired record) (GeneID 5740211)", "DRSC id": "DRSC38653", "firefly reporter light, replicate 1": 8.57e5, "firefly reporter light, replicate 2": 8.14e5, "Renilla control light, replicate 1": 2.03e6, "Renilla control light, replicate 2": 2.37e6}
{"target gene": "CG6454 (GeneID 42904)", "DRSC id": "DRSC16044", "firefly reporter light, replicate 1": 57061, "firefly reporter light, replicate 2": 1.11e5, "Renilla control light, replicate 1": 6.59e5, "Renilla control light, replicate 2": 7.21e5}
{"target gene": "CG6454 (GeneID 42904)", "DRSC id": "DRSC24613", "firefly reporter light, replicate 1": 1.06e6, "firefly reporter light, replicate 2": 9.57e5, "Renilla control light, replicate 1": 1.05e6, "Renilla control light, replicate 2": 1.08e6}
{"target gene": "Golgin97 (GeneID 36492)", "DRSC id": "DRSC06895", "firefly reporter light, replicate 1": 1.12e6, "firefly reporter light, replicate 2": 1.09e6, "Renilla control light, replicate 1": 2.28e6, "Renilla control light, replicate 2": 2.52e6}
{"target gene": "mIF3 (GeneID 36335)", "DRSC id": "DRSC06290", "firefly reporter light, replicate 1": 2.70e5, "firefly reporter light, replicate 2": 1.72e5, "Renilla control light, replicate 1": 1.55e6, "Renilla control light, replicate 2": 1.21e6}
{"target gene": "Trf4 (GeneID 33452)", "DRSC id": "DRSC38927", "firefly reporter light, replicate 1": 8.38e5, "firefly reporter light, replicate 2": 7.16e5, "Renilla control light, replicate 1": 2.07e6, "Renilla control light, replicate 2": 1.59e6}
{"target gene": "CG11977 (GeneID 41076)", "DRSC id": "DRSC14454", "firefly reporter light, replicate 1": 91853, "firefly reporter light, replicate 2": 1.06e5, "Renilla control light, replicate 1": 1.76e6, "Renilla control light, replicate 2": 2.00e6}
{"target gene": "Ugt37D1 (GeneID 53511)", "DRSC id": "DRSC02645", "firefly reporter light, replicate 1": 1.86e5, "firefly reporter light, replicate 2": 1.17e5, "Renilla control light, replicate 1": 1.36e6, "Renilla control light, replicate 2": 1.19e6}
{"target gene": "Ugt37D1 (GeneID 53511)", "DRSC id": "DRSC23980", "firefly reporter light, replicate 1": 4.48e5, "firefly reporter light, replicate 2": 2.87e5, "Renilla control light, replicate 1": 2.00e6, "Renilla control light, replicate 2": 8.71e5}
{"target gene": "CG32148 (GeneID 251924)", "DRSC id": "DRSC09338", "firefly reporter light, replicate 1": 2.34e5, "firefly reporter light, replicate 2": 3.30e5, "Renilla control light, replicate 1": 8.92e5, "Renilla control light, replicate 2": 8.34e5}
{"target gene": "CG32148 (GeneID 251924)", "DRSC id": "DRSC28787", "firefly reporter light, replicate 1": 4.44e5, "firefly reporter light, replicate 2": 3.71e5, "Renilla control light, replicate 1": 9.02e5, "Renilla control light, replicate 2": 9.75e5}
{"target gene": "TM9SF3 (GeneID 38635)", "DRSC id": "DRSC09747", "firefly reporter light, replicate 1": 1.38e5, "firefly reporter light, replicate 2": 1.23e5, "Renilla control light, replicate 1": 1.77e6, "Renilla control light, replicate 2": 1.91e6}

Entries listed so far whose gene name starts with S or s (3):
{"target gene": "Syx13 (GeneID 39485)", "DRSC id": "DRSC09836", "firefly reporter light, replicate 1": 1.29e5, "firefly reporter light, replicate 2": 1.26e5, "Renilla control light, replicate 1": 1.74e6, "Renilla control light, replicate 2": 1.45e6}
{"target gene": "Sirt4 (GeneID 31480)", "DRSC id": "DRSC18290", "firefly reporter light, replicate 1": 1.90e5, "firefly reporter light, replicate 2": 2.43e5, "Renilla control light, replicate 1": 1.77e6, "Renilla control light, replicate 2": 2.03e6}
{"target gene": "Sirt4 (GeneID 31480)", "DRSC id": "DRSC27472", "firefly reporter light, replicate 1": 4.15e5, "firefly reporter light, replicate 2": 3.71e5, "Renilla control light, replicate 1": 7.24e5, "Renilla control light, replicate 2": 8.07e5}
